Measurements published in patent US20170240570A1, “NOVEL SMALL MOLECULE ANTICANCER AGENTS” (UNIVERSITY OF FLORIDA RESEARCH FOUNDATION, priority 2014, published 2017).
At least one compound was matched to its structure with a doubt left.

Experiments:
[1] = tested on: HER2, EGFR, Akt, Erk, S6, PARP in HCC1954 cells; test: Immunoblot analysis of treated cells; type: cell-based, human; details: 24 h
[2] = tested on: HCC1954 cells; test: Viability in MTT assay; type: cell-based, human; details: 24 h

SMILES: CO[C@H]1C[C@@H]2CC[C@@H](C)[C@@](O)(O2)C(=O)C(=O)N2CCCC[C@H]2C(=O)O[C@H]([C@H](C)C[C@@H]2CC[C@@H](O)[C@H](OC)C2)CC(=O)[C@H](C)/C=C(\C)[C@@H](O)[C@@H](OC)C(=O)[C@H](C)C[C@H](C)/C=C/C=C/C=C/1C [rapamycin]
- S6 phosphorylation ([1]; 100 nM Rapamycin): suppressed
- Akt phosphorylation ([1]; 20 μM RBF3, 100 nM Rapamycin, 20 μM Lapatinib): did not alter
- Erk phosphorylation ([1]; 20 μM RBF3, 100 nM Rapamycin, 20 μM Lapatinib (FIG. 8C)): did not alter
- response of cell viability to single drug [2]: relatively resistant
